# Results from article PMC12408345.
# By UniProt entry, the sequences of proteins in these tests, tags left out.
# UniProt Q9Y397: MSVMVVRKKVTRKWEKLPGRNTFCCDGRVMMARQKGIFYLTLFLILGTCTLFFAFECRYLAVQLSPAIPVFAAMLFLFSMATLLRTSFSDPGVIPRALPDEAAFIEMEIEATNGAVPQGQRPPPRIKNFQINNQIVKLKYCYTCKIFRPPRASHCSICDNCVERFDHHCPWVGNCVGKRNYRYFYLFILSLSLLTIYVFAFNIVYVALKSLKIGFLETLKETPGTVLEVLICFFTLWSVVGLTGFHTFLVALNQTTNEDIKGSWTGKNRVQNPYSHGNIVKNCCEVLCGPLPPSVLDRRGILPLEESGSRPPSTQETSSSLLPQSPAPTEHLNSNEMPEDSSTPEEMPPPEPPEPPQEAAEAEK
# UniProt P46937: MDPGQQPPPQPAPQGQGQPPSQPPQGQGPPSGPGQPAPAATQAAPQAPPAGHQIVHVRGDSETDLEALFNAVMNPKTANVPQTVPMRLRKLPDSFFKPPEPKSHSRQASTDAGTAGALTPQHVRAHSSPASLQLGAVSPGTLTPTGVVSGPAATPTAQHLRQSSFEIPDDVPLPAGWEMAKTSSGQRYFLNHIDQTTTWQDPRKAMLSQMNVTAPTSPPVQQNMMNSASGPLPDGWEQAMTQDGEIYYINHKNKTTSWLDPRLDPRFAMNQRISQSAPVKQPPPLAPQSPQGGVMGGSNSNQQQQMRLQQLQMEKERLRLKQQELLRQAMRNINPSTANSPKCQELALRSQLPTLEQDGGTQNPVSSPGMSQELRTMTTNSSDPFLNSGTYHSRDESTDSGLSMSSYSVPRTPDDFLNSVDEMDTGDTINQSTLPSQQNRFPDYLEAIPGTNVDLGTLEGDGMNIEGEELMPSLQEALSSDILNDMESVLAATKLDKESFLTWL
# These are yes or no findings as the source states them, for the method shown. In cells and extracts the contact can be indirect. Some results given as binding are weak or reduced against the parent protein; the word gives no strength. For part of these data: Where a sequence is shown, tags or fusion partners need not be part of it.
# What was measured:
# STRN4-3×Flag (human) = target: T1, STRN4-3×Flag (human) (UniProt Q9NRL3); experiment: co-IP; overexpressed tagged proteins in HEK293T cells; lysis in 50 mM HEPES pH 7.4, 150 mM NaCl, 1% NP-40 with protease and phosphatase inhibitors; antibody overnight, protein A/G agarose 8 h at 4°C; four PBS washes; immunoblot
# T1 sequence: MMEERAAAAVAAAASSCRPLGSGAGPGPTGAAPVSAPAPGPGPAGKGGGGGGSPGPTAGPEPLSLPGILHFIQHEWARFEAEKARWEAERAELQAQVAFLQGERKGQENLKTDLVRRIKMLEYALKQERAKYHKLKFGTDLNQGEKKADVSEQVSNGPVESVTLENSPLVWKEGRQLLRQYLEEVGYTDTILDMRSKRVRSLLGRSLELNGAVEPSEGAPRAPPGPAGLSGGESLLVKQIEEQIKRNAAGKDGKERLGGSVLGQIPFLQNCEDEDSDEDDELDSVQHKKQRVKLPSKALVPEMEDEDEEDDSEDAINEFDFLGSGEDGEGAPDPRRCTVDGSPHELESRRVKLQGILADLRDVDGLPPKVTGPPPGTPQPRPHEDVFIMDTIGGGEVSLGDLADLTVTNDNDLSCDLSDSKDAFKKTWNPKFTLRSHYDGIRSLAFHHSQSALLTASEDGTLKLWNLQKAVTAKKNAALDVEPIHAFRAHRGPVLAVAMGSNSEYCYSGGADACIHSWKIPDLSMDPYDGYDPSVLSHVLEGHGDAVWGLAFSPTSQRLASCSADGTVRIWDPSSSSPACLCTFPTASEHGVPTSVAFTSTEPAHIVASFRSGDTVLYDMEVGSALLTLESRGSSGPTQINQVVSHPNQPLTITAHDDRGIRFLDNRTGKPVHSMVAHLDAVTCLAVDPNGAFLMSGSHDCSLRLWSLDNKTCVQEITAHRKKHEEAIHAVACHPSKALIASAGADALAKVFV
# [1] = target: T2, STRN4 (endogenous, HCT116) (human (endogenous in HCT116)) (UniProt Q9NRL3); experiment: co-IP; endogenous proteins in HCT116 cells; lysis in 50 mM HEPES pH 7.4, 150 mM NaCl, 1% NP-40 with protease and phosphatase inhibitors; antibody overnight, protein A/G agarose 8 h at 4°C; four PBS washes; immunoblot
# T2 sequence: T1 sequence
binding (STRN4-3×Flag (human)),binding [1],Substance
binds,,DHHC9-3×HA (from UniProt Q9Y397 1-364) (enzyme)
binds,,Myc-YAP1 (from UniProt P46937 1-504)
,binds,"DHHC9 (endogenous, HCT116) (from UniProt Q9Y397 1-364) (enzyme)"
